Target: T1, PscD (PscD-SD, Cache sensor domain of chemoreceptor PscD) (Pseudomonas syringae, UniProt A0ABY1U976)
T1 construct: gene CFBP3846_03581; sensor domain, Gln31-Trp188, N-terminal His6 tag
T1 sequence (A0ABY1U976 31-188): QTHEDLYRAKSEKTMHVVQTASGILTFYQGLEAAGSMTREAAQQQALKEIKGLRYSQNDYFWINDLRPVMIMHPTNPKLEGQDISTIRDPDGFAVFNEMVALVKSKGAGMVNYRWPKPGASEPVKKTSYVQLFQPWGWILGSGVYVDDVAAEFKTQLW
Set-up: fluorescence thermal shift (SYPRO Orange) screen of Biolog PM1/PM2 compounds, delta Tm
Settings: Biolog plate compound, exact concentration unknown; binder
Text: We used high-throughput fluorescence thermal shift (FTS) assays (as described previously[16]) to screen for potential ligands of PscD-SD. FTS assays are based on the principle that ligands stabilise proteins upon binding, causing an increase in the melting temperature of the protein[22][23]. Binding can therefore be rapidly screened by measuring the difference in the temperature midpoint of unfolding (ΔTm) of a protein in the presence and absence of potential ligands. In our FTS assays, the Tm was measured by monitoring an increase in fluorescence of a dye with affinity for hydrophobic parts of the protein (i.e. SYPRO Orange), which are exposed as the protein unfolds. We screened the recombinant PscD-SD protein in FTS assays against the compounds in Biolog Phenotype Microarray (PM) plates 1 and 2 (Supplementary Tables 1 and 2). Each plate contains 95 different compounds (e.g., organic acids, sugars) and a water (no ligand) control. […] The plate was covered with Lightcycler 480 sealing film (Roche Diagnostics) and fluorescence signal was monitored as the temperature was increased from 20 °C to 80 °C at a rate of 1.2 °C.min^−1 in a Lightcycler 480 (Roche Diagnostics). […] The first derivative values (−dF/dt) from the raw fluorescence data were used to determine the melting temperature (Tm). […]

With `NCCC[C@H](N)C(=O)O` [L-Ornithine] the “Δ Tm” value was 0.00 ± 0.00 °C.

From paper PMC5062169, “Structural basis for ligand recognition by a Cache chemosensory domain that mediates carboxylate sensing in Pseudomonas syringae” (Scientific Reports, 2016)
